Some of the results follow.
Key:
Assay in all cases: log2 fold change, soluble protein after heating vs DMSO (PISA); higher = thermal stabilisation; K562 lysate, 10 uM; active = over 0.2 and 3.5 SD of the protein, either way, in both replicates (recomputed)
erlotinib = compound: C#Cc1cccc(Nc2ncnc3cc(OCCOC)c(OCCOC)cc23)c1 [erlotinib]
Procedure, shortened: (§1)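 K562 pellets were dounce-homogenised in PBS pH 7.4 with 1 mM MgCl2, and the crude extract at 1 mg/mL protein was treated with 10 μM compound for 30 min. Aliquots were heated for 3 min across 48°C-58°C, pooled, and brought to 0.5% NP-40 at 4°C; soluble protein was the supernatant after 21,000xg for 90 min. Soluble protein was quantified by TMTpro 16plex LC-MS/MS with channel sums equalised, and reported as log2 fold change in thermal stability against DMSO controls, with values from duplicates.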

By UniProt entry, the sequences of proteins in these tests, tags left out. Where a name states a change or a piece, a line headed by the entry shows the natural chain unless it says otherwise.
UniProt Q9H254, whole entry, looked up: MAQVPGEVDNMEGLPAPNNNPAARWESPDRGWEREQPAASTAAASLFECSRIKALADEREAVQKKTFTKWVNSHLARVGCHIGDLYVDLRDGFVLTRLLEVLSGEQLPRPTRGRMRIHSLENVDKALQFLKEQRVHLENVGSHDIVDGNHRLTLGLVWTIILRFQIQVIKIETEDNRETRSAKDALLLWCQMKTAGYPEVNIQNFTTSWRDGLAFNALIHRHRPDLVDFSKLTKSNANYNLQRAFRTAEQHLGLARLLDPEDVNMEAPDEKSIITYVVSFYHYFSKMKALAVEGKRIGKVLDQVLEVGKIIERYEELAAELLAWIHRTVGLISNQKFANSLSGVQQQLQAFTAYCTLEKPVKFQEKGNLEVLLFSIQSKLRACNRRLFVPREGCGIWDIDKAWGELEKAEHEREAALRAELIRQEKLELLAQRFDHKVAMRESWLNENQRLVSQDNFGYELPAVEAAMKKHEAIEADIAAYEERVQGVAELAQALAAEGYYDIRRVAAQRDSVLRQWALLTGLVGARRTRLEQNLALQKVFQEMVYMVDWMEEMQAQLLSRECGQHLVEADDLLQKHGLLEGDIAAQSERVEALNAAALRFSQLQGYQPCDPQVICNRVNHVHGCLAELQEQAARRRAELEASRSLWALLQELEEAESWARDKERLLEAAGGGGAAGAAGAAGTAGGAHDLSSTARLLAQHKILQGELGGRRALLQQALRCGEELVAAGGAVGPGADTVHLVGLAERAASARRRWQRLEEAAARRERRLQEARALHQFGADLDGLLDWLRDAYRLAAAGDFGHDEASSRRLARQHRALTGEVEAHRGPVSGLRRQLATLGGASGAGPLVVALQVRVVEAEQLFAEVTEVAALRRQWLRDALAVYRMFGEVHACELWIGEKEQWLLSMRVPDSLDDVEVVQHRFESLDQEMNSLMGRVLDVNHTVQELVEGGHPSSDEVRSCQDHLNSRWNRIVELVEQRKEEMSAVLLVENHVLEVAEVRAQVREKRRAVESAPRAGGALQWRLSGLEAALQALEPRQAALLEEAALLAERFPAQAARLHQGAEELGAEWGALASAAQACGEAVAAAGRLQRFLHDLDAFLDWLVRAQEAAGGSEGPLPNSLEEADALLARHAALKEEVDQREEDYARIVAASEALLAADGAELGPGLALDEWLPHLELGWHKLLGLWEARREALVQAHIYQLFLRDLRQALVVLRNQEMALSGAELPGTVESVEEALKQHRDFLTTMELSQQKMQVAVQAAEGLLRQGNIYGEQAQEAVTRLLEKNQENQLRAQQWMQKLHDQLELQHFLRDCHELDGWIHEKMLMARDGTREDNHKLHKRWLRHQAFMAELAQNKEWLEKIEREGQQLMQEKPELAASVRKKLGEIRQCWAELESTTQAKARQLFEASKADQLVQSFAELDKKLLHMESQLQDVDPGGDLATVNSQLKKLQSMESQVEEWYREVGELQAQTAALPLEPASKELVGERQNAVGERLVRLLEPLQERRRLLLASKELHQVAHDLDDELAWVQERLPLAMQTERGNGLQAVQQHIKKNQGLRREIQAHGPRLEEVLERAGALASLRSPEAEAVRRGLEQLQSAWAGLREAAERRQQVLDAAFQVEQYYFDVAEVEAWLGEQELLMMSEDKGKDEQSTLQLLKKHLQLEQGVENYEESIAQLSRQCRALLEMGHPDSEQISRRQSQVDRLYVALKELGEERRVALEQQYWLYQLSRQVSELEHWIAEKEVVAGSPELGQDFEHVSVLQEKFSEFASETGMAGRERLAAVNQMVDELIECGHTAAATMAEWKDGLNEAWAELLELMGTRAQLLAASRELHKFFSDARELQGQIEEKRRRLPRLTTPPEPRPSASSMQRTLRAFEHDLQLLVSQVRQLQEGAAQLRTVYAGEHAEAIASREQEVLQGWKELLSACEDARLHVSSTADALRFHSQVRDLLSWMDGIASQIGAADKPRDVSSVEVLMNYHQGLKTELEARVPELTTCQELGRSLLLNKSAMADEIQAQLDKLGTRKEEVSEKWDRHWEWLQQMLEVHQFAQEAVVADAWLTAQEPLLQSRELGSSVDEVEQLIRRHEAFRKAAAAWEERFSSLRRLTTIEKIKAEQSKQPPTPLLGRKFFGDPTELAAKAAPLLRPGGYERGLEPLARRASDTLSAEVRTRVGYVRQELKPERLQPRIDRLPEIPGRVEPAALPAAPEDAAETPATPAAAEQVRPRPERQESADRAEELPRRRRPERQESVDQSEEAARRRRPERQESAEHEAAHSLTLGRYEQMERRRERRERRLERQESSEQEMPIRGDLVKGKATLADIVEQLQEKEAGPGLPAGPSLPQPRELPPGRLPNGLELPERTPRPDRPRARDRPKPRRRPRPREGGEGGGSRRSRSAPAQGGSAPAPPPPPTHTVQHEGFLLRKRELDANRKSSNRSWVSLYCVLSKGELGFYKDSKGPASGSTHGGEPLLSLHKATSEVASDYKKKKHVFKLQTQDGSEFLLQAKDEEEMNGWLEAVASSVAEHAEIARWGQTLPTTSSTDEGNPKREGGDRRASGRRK
UniProt Q9H8P0: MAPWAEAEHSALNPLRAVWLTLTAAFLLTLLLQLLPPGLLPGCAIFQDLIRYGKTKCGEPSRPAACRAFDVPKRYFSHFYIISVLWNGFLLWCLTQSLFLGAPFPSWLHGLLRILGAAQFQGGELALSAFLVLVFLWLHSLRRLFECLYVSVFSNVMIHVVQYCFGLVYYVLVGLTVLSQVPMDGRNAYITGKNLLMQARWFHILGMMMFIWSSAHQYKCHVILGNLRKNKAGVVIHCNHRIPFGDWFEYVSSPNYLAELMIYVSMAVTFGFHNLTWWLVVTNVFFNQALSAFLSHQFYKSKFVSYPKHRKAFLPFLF
UniProt Q13243: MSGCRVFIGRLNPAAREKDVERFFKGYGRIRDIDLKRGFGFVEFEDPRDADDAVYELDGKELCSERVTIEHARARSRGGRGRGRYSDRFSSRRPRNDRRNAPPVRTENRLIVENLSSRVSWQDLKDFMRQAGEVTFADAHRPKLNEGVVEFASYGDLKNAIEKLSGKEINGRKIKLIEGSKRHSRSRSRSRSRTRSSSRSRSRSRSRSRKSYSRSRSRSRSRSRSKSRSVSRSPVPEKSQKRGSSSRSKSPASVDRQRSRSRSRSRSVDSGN
UniProt Q8WW59: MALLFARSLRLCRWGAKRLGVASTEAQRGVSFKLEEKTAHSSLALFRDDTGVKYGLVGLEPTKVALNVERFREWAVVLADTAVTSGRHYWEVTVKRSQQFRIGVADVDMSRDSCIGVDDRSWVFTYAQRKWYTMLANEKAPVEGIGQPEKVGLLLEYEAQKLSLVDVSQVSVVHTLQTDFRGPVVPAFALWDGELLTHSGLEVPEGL
UniProt Q13247: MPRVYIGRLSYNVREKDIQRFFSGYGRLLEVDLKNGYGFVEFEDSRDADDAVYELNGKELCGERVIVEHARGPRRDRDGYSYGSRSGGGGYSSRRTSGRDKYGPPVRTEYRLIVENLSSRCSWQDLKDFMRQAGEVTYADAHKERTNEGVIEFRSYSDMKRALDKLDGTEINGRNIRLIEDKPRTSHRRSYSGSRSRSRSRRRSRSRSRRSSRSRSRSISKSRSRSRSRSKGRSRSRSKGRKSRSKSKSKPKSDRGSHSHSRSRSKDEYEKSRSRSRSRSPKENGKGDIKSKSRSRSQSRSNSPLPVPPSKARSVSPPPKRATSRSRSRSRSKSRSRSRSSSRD
UniProt P15907: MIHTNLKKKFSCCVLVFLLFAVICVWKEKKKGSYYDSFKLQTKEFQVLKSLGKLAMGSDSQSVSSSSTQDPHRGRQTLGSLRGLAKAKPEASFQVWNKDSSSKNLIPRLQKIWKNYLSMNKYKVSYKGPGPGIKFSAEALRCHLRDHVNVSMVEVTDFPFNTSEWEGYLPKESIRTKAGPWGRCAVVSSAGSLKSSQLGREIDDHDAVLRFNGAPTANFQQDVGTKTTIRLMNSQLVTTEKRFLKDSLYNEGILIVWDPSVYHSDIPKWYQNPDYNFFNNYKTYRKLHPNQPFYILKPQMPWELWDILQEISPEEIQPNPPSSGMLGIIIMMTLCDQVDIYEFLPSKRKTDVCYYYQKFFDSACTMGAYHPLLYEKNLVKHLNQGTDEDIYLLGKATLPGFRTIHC
UniProt Q9HBM1: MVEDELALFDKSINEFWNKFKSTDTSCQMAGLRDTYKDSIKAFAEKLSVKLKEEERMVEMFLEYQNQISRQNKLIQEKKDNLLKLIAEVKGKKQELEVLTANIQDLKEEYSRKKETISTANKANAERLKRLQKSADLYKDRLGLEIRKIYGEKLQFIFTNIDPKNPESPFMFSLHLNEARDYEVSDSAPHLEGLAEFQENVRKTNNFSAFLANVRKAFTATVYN
UniProt Q8WXA9: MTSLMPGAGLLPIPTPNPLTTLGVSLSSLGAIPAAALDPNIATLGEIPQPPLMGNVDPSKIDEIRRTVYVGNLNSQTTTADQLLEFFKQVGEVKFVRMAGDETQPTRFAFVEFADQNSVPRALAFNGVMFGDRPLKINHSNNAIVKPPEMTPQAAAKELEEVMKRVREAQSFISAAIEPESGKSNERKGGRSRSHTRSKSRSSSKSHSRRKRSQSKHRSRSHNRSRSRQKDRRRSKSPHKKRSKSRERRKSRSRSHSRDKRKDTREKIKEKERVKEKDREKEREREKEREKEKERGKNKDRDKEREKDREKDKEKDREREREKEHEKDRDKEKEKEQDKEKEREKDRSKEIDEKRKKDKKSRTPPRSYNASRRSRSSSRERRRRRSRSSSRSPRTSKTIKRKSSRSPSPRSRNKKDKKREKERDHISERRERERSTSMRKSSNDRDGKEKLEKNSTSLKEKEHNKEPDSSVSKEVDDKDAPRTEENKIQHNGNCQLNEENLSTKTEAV
UniProt P84103: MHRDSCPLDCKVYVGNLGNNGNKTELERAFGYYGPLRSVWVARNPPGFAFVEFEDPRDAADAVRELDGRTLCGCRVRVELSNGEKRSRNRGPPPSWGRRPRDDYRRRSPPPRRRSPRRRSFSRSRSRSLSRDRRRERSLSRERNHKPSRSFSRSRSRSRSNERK
UniProt Q07955, whole entry, looked up: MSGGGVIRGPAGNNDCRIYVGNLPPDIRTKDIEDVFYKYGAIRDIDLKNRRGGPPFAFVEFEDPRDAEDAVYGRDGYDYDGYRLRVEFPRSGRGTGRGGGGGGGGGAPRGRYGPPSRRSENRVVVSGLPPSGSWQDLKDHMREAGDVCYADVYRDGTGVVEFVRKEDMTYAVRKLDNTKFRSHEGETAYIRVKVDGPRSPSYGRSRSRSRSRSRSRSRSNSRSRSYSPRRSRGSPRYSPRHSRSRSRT
UniProt P19623: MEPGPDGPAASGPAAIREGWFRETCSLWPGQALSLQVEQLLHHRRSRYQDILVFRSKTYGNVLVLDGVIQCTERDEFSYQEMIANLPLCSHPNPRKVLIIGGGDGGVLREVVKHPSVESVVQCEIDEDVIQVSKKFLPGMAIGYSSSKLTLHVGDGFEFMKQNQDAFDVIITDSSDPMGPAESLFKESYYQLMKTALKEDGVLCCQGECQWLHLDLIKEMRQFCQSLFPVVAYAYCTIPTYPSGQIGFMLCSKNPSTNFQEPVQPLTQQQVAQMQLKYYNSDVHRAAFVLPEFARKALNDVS
UniProt P09132: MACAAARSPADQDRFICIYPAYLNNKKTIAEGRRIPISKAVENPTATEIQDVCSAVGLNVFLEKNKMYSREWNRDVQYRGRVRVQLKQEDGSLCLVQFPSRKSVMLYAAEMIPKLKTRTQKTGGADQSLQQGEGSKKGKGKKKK
UniProt P50502: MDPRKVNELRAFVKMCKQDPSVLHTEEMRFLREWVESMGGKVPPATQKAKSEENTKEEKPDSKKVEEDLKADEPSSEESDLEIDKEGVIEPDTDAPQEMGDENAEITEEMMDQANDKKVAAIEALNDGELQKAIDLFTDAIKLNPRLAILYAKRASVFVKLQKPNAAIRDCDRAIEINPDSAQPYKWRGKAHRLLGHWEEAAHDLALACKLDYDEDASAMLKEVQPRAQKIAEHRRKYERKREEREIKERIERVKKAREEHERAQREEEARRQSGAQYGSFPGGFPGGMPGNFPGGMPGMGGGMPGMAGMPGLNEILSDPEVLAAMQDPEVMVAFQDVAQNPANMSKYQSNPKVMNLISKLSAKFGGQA
UniProt P35270: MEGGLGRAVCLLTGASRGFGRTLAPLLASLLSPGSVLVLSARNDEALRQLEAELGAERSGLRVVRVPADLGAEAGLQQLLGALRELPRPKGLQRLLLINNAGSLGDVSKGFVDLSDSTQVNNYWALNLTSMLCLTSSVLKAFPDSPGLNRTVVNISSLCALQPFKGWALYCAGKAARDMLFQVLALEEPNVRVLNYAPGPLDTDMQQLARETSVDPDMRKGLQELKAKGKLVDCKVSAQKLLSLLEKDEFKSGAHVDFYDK

[1] = compound: C/C(=N\NC(=O)C1=CC(=CC=C1)S(=O)(=O)N2CCOCC2)/C3=C(C=CC(=C3)Cl)O
Procedure, shortened: as §1

[2] = compound: C1=CC(=CC=C1C2=NC3=C(N2)C=C(C=C3)C(=O)N)OC4=CC=C(C=C4)Cl
Procedure, shortened: as §1

[3] = compound: C1=CC2=C(C=CC(=C2)/C=C\3/C(=O)NC(=NCC4=CC=CS4)S3)N=C1
Procedure, shortened: as §1

[4] = compound: C1=CC2=NC=CN=C2C=C1/C=C/3\C(=O)NC(=O)S3
Procedure, shortened: as §1

[5] = compound: C1=CC=C(C=C1)C2=NC(=C(N2)C3=CC=NC=C3)C4=CC(=C(C=C4)Cl)O
Procedure, shortened: as §1

[6] = compound: C1=CC=C2C(=C1)C3=NNC4=CC=CC(=C43)C2=O
Procedure, shortened: as §1

[7] = compound: C1CCN(C1)C(=O)NC2=CC=CC(=C2)NC3=NC=C(C(=N3)NCCC4=CN=CN4)Br
Procedure, shortened: as §1

[8] = compound: C1CN(CCC1(CC2=CC=C(C=C2)Cl)N)C3=NC=NC4=C3C=CN4
Procedure, shortened: as §1

IRAK-1-4 Inhibitor I = compound: C1COCCN1CCN2C3=CC=CC=C3N=C2NC(=O)C4=CC(=CC=C4)[N+](=O)[O-] [IRAK-1-4 Inhibitor I]
Procedure, shortened: as §1

ibrutinib = compound: C=CC(=O)N1CCC[C@@H](n2nc(-c3ccc(Oc4ccccc4)cc3)c3c(N)ncnc32)C1 [ibrutinib]
Procedure, shortened: as §1

[9] = compound: CC(=O)c1cnc2ccc(-c3cc(Cl)c(O)c(Cl)c3)nc2c1N[C@H]1CC[C@H](CN(C)C)CC1
Procedure, shortened: as §1

ralimetinib = compound: CC(C)(C)Cn1c(N)nc2ccc(-c3[nH]c(C(C)(C)C)nc3-c3ccc(F)cc3)nc21 [ralimetinib]
Procedure, shortened: as §1

[10] = compound: CC(C)(O)CC(=O)NCCn1ccc2ncnc(Nc3ccc(Oc4cccc(C(F)(F)F)c4)c(Cl)c3)c21
Procedure, shortened: as §1

[11] = compound: CC(C)C1=C2N=C(C=C(N2N=C1)NCC3=CC=CC=C3)NCCCCCCN
Procedure, shortened: as §1

[12] = compound: CC1=C(C(CC(=O)N1)C2=CC=C(C=C2)C(F)(F)F)C(=O)NC3=C(C=C4C(=C3)C=NN4)F
Procedure, shortened: as §1

[13] = compound: CC1=C(C2=C(C=C1)C(=O)C3=CC=CC=C3N2CCCN)C
Procedure, shortened: as §1

[14] = compound: CC1=C(C=C(C=C1)NC(=O)C2=CC(=CC=C2)C(C)(C)C#N)NC3=CC4=C(C=C3)N=CN(C4=O)C
Procedure, shortened: as §1

[15] = compound: CC1=C(C=C(C=C1)NC(=O)C2=CC(=CC=C2)N(C)C)NC(=O)C3=CC=C(C=C3)O
Procedure, shortened: as §1

[16] = compound: CC1=CC=C(C=C1)SC2=C3C=C(SC3=CN=C2)C(=O)N
Procedure, shortened: as §1

Measured: log2 fold change

SPTBN4 (UniProt Q9H254)
inactive: erlotinib -0.027 | [1] 0.009 | [2] -0.042 | [3] 0.083 | [4] 0.286 | [5] -0.112 | [6] -0.141 | [7] -0.085 | [8] 0.019 | IRAK-1-4 Inhibitor I 0.029 | ibrutinib 0.018 | [9] 0.018 | ralimetinib 0.032 | [10] -0.288 | [11] -0.074 | [12] -0.011 | [13] 0.025 | [14] 0.028 | [15] -0.021 | [16] 0.007

SRD5A3 (UniProt Q9H8P0)
inactive: erlotinib -0.166 | [1] 0.001 | [2] -0.164 | [3] 0.146 | [4] 0.103 | [5] -0.064 | [6] 0.246 | [7] 0.023 | [8] 0.039 | IRAK-1-4 Inhibitor I -0.047 | ibrutinib -0.109 | [9] 0.147 | ralimetinib -0.164 | [10] -0.277 | [11] 0.027 | [12] 0.022 | [13] 0.045 | [14] -0.31 | [15] 0.053 | [16] 0.042

SRSF5 (UniProt Q13243)
inactive: erlotinib -0.033 | [1] -0.224 | [2] -0.001 | [3] -0.043 | [4] -0.035 | [5] 0.023 | [6] -0.019 | [7] 0.023 | [8] -0.005 | IRAK-1-4 Inhibitor I 0.03 | ibrutinib 0.006 | [9] -0.002 | ralimetinib 0.045 | [10] 0.004 | [11] -0.003 | [12] -0.004 | [13] -0.031 | [14] 0.048 | [15] 0.045 | [16] -0.001

SPRYD4 (UniProt Q8WW59)
inactive: erlotinib -0.024 | [1] 0.042 | [2] -0.017 | [3] 0.023 | [4] 0.019 | [5] 0.011 | [6] -0.022 | [7] -0.048 | [8] -0.017 | IRAK-1-4 Inhibitor I 0 | ibrutinib 0.008 | [9] -0.002 | ralimetinib -0.02 | [10] -0.03 | [11] -0.005 | [12] -0.035 | [13] -0.007 | [14] 0.024 | [15] 0.002 | [16] 0.026

SRSF6 (UniProt Q13247)
inactive: erlotinib 0.018 | [1] -0.216 | [2] -0.004 | [3] 0 | [4] -0.013 | [5] 0.008 | [6] 0.017 | [7] 0.126 | [8] -0.036 | IRAK-1-4 Inhibitor I -0.017 | ibrutinib 0.036 | [9] 0.018 | ralimetinib -0.008 | [10] 0.063 | [11] -0.032 | [12] 0 | [13] -0.02 | [14] -0.119 | [15] 0.021 | [16] 0.01

ST6GAL1 (UniProt P15907)
inactive: erlotinib -0.052 | [1] -0.039 | [2] -0.072 | [3] 0.054 | [4] -0.004 | [5] 0.014 | [6] -0.014 | [7] -0.041 | [8] 0.032 | IRAK-1-4 Inhibitor I 0.008 | ibrutinib 0.009 | [9] 0.089 | ralimetinib 0.001 | [10] -0.044 | [11] 0.054 | [12] 0.005 | [13] -0.058 | [14] 0.024 | [15] -0.005 | [16] -0.015

SPC25 (UniProt Q9HBM1)
inactive: erlotinib 0.021 | [1] -0.065 | [2] -0.006 | [3] 0.059 | [4] -0.034 | [5] 0.021 | [6] -0.006 | [7] -0.039 | [8] 0.018 | IRAK-1-4 Inhibitor I 0.027 | ibrutinib 0 | [9] -0.058 | ralimetinib -0.038 | [10] 0.015 | [11] -0.002 | [12] -0.032 | [13] -0.017 | [14] 0.016 | [15] 0.002 | [16] 0.006

SQSTM1 (UniProt Q13501)
inactive: erlotinib 0.04 | [1] 0.036 | [2] 0.004 | [3] -0.033 | [4] 0.034 | [5] -0.013 | [6] -0.037 | [7] -0.023 | [8] -0.025 | IRAK-1-4 Inhibitor I 0.006 | ibrutinib -0.022 | [9] 0.009 | ralimetinib -0.014 | [10] -0.041 | [11] 0.015 | [12] -0.084 | [13] -0.054 | [14] 0.032 | [15] 0.027 | [16] 0.017

SREK1 isoform 2 (UniProt Q8WXA9)
inactive: erlotinib 0.024 | [1] -0.07 | [2] -0.019 | [3] -0.044 | [4] -0.037 | [5] -0.014 | [6] -0.005 | [7] -0.017 | [8] -0.032 | IRAK-1-4 Inhibitor I -0.014 | ibrutinib 0.025 | [9] 0.009 | ralimetinib -0.005 | [10] -0.006 | [11] 0.003 | [12] 0.016 | [13] 0.021 | [14] 0.005 | [15] 0.008 | [16] -0.018

SRSF3 (UniProt P84103)
inactive: erlotinib -0.006 | [1] 0.038 | [2] -0.063 | [3] -0.026 | [4] 0.005 | [5] 0.022 | [6] 0.037 | [7] 0.02 | [8] -0.042 | IRAK-1-4 Inhibitor I 0.003 | ibrutinib 0.027 | [9] -0.008 | ralimetinib -0.022 | [10] -0.012 | [11] 0.035 | [12] 0.024 | [13] 0.001 | [14] -0.022 | [15] 0.009 | [16] 0.017

STAG2 isoform 2 (UniProt Q8N3U4)
inactive: erlotinib -0.01 | [1] -0.005 | [2] 0.024 | [3] 0.003 | [4] -0.03 | [5] 0.001 | [6] 0.007 | [7] 0.001 | [8] 0.013 | IRAK-1-4 Inhibitor I 0.001 | ibrutinib -0.015 | [9] -0.011 | ralimetinib -0.003 | [10] -0.023 | [11] -0.025 | [12] -0.009 | [13] -0.002 | [14] -0.01 | [15] 0.01 | [16] 0

SRSF1 (UniProt Q07955)
inactive: erlotinib -0.011 | [1] 0.006 | [2] -0.033 | [3] -0.004 | [4] 0.004 | [5] -0.003 | [6] -0.019 | [7] 0.027 | [8] -0.001 | IRAK-1-4 Inhibitor I -0.003 | ibrutinib -0.02 | [9] -0.011 | ralimetinib -0.003 | [10] -0.047 | [11] 0.001 | [12] 0.001 | [13] -0.009 | [14] 0.037 | [15] 0.003 | [16] -0.006

Pulled one by one from the list above (2):
SPC25 (UniProt Q9HBM1)
inactive: erlotinib 0.021 | [1] -0.065 | [2] -0.006 | [3] 0.059 | [4] -0.034 | [5] 0.021 | [6] -0.006 | [7] -0.039 | [8] 0.018 | IRAK-1-4 Inhibitor I 0.027 | ibrutinib 0 | [9] -0.058 | ralimetinib -0.038 | [10] 0.015 | [11] -0.002 | [12] -0.032 | [13] -0.017 | [14] 0.016 | [15] 0.002 | [16] 0.006

SRSF6 (UniProt Q13247)
inactive: erlotinib 0.018 | [1] -0.216 | [2] -0.004 | [3] 0 | [4] -0.013 | [5] 0.008 | [6] 0.017 | [7] 0.126 | [8] -0.036 | IRAK-1-4 Inhibitor I -0.017 | ibrutinib 0.036 | [9] 0.018 | ralimetinib -0.008 | [10] 0.063 | [11] -0.032 | [12] 0 | [13] -0.02 | [14] -0.119 | [15] 0.021 | [16] 0.01

(next part)

SRM (UniProt P19623)
inactive: erlotinib -0.006 | [1] 0.039 | [2] 0.017 | [3] -0.001 | [4] 0.014 | [5] 0.004 | [6] -0.003 | [7] 0.017 | [8] 0.027 | IRAK-1-4 Inhibitor I 0.007 | ibrutinib 0.018 | [9] 0.007 | ralimetinib 0.025 | [10] -0.047 | [11] -0.011 | [12] -0.003 | [13] -0.006 | [14] 0.003 | [15] 0 | [16] -0.011

SRP19 (UniProt P09132)
inactive: erlotinib 0.011 | [1] -0.298 | [2] -0.007 | [3] -0.074 | [4] -0.012 | [5] 0.008 | [6] 0.077 | [7] -0.008 | [8] 0.022 | IRAK-1-4 Inhibitor I 0.027 | ibrutinib 0.014 | [9] 0.001 | ralimetinib -0.033 | [10] 0.02 | [11] -0.063 | [12] 0.02 | [13] 0.029 | [14] 0.009 | [15] -0.039 | [16] 0.031

ST13 (UniProt P50502)
inactive: erlotinib -0.015 | [1] -0.013 | [2] -0.027 | [3] -0.017 | [4] 0.004 | [5] 0.021 | [6] 0.025 | [7] 0.006 | [8] 0.004 | IRAK-1-4 Inhibitor I 0.001 | ibrutinib 0.021 | [9] 0.026 | ralimetinib -0.013 | [10] 0.014 | [11] -0.005 | [12] -0.01 | [13] 0.008 | [14] 0.003 | [15] -0.026 | [16] 0.01

SPR (UniProt P35270)
inactive: erlotinib -0.027 | [1] 0.014 | [2] -0.021 | [3] 0.056 | [4] 0.049 | [6] 0.013 | [7] 0.008 | [8] -0.041 | IRAK-1-4 Inhibitor I 0.049 | ibrutinib 0.027 | [9] 0.293 | ralimetinib 0.024 | [10] 0 | [11] -0.048 | [12] -0.051 | [13] -0.038 | [14] -0.046 | [15] -0.028 | [16] 0.023
active: [5] 1.04
